These are yes or no findings as the source states them, for the method shown. Binding seen in cells or lysates may run through a third protein. Some entries that bind do so weakly or less than the wild type. Where a sequence is shown, tags or fusion partners need not be part of it.
Legend:
[1] = biological target: T1, Tim23 protein with the G145L mutation, His-tagged (G145Lhis) (S. cerevisiae) (UniProt P32897); experiment: pull-down; mitochondrial extracts (300 ug mitochondria) of TIM23 and tim23-G145L strains on Ni2+-NTA agarose beads, His-tagged Tim23 as bait, pull-down buffer with 0.05% digitonin, 45 min at 40°C as printed, three washes; total, unbound and bound fractions immunoblotted for Tim17p, Tim23p, Tim50p, Mgr2p
T1 sequence: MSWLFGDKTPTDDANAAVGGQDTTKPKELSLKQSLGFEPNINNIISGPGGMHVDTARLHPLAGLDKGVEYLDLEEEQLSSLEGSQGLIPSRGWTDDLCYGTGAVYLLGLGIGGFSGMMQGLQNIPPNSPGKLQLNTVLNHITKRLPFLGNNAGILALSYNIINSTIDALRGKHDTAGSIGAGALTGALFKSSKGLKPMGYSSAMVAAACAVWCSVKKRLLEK

[2] = biological target: T2, Tim23 protein, wild type, His-tagged (WThis) (S. cerevisiae) (UniProt P32897); experiment: as above
T2 sequence: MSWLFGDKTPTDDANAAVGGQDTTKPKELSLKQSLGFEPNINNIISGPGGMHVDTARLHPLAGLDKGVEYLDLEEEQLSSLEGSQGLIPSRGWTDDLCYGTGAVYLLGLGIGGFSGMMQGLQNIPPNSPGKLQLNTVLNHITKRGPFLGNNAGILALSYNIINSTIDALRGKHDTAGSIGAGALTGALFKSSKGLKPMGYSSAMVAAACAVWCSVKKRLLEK

| Binder | binding [1] | binding [2] |
| --- | --- | --- |
| Mgr2 protein (protein, UniProt Q02889 1-113) MPPLPQNYAQQQPSNWDKFKMGLMMGTTVGVCTGILFGGFAIATQGPGPDGVVRTLGKYIAGSAGTFGLFMSIGSIIRSDSESSPMSHPNLNLQQQARLEMWKLRAKYGIRKD | no binding | binds |
| Tim17p (protein, UniProt P39515 1-158) MSADHSRDPCPIVILNDFGGAFAMGAIGGVVWHGIKGFRNSPLGERGSGAMSAIKARAPVLGGNFGVWGGLFSTFDCAVKAVRKREDPWNAIIAGFFTGGALAVRGGWRHTRNSSITCACLLGVIEGVGLMFQRYAAWQAKPMAPPLPEAPSSQPLQA | binds | binds |
